Measurements reported in PubChem BioAssay AID602196 (INSERM, 2012).
In all, the deposit lists about 23,000 reagents; this is an unselected part. Over the whole deposit, 455 (2%) got an active call. 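Active includes both protection and sensitisation; some change values fall well beyond the stated -50 to +50 range.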 Not given: the amount of reagent.

Assay: 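Knock-downs that protect lung cancer cells from cisplatin or sensitise them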
Cells: human A549 lung cancer cells
Reagent: siRNA pair against human genes
Time to read-out: 48 h transfection before cisplatin; time from cisplatin to read-out not stated
Challenge: cisplatin at a dose killing half of control-siRNA cells; exact dose and duration not given
Measurement: 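Cisplatin cell death as a shift from the 50% death seen with control siRNA; siRNAs toxic or growth-blocking alone scored 0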
Reading the numbers: two-siRNA summed score (-2 to +2): higher = both siRNAs protect from cisplatin killing; -2 means both sensitise; mean protection from cisplatin (shift in death) and protection from cisplatin (shift in death), siRNA C and protection from cisplatin (shift in death), siRNA D: higher = protection from cisplatin killing
Active means: 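Each siRNA scores 0 if harmful alone by LDH or WST-1, otherwise +1 if it reduces and -1 if it increases cisplatin killing; a gene is active when both siRNAs agree (sum +2 or -2)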
Meaning of the calls: active = both siRNAs shift cisplatin killing the same way; inactive = no consistent shift, or siRNA harmful alone

The first 2 records, ahead of the listing:
| target gene | two-siRNA summed score (-2 to +2) | mean protection from cisplatin (shift in death) (%) | protection from cisplatin (shift in death), siRNA C (%) | protection from cisplatin (shift in death), siRNA D (%) | activity call |
| --- | --- | --- | --- | --- | --- |
| ZNF250 | 0 | 5.6 | 13 | -1.9 | inactive |
| LOC440230 | 1 | 12.7 | 6.9 | 18.4 | inactive |

The listing, from the first entry:
| target gene | two-siRNA summed score (-2 to +2) | mean protection from cisplatin (shift in death) (%) | protection from cisplatin (shift in death), siRNA C (%) | protection from cisplatin (shift in death), siRNA D (%) | activity call |
| --- | --- | --- | --- | --- | --- |
| ZNF250 | 0 | 5.6 | 13 | -1.9 | inactive |
| LOC440230 | 1 | 12.7 | 6.9 | 18.4 | inactive |
| GREM2 | 0 | 1.4 | 1.7 | 1 | inactive |
| LOC130429 | -1 | -10 | -14.1 | -5.8 | inactive |
| CSTL1 | 1 | 4.8 | -7.7 | 17.3 | inactive |
| SPMIP5 | 0 | 6 | 7.1 | 4.9 | inactive |
| CEP162 | 1 | 10.7 | 12.9 | 8.5 | inactive |
| CARD17P | 0 | -2.6 | 2.2 | -7.5 | inactive |
| FOXD1 | 0 | -7.7 | -14.1 | -1.2 | inactive |
| CPAMD8P1 | 0 | 7.5 | 19.5 | -4.4 | inactive |
| RPS16 | 0 | 17 | 5.7 | 28.2 | inactive |
| COMMD1 | 0 | -10 | -18.4 | -1.6 | inactive |
| EMC10 | 0 | 13.2 | 14.2 | 12.2 | inactive |
| TCN1 | 0 | 6.5 | 15.5 | -2.6 | inactive |
| SP100 | 0 | 12.5 | 8.3 | 16.7 | inactive |
| LOC163301 | 0 | 13.1 | 17.2 | 9 | inactive |
| EHHADH-AS1 | 1 | 6.8 | -5.3 | 18.9 | inactive |
| ARHGAP36 | 0 | -4.9 | -3.9 | -5.8 | inactive |
| CUBN | -1 | -12.5 | -6.4 | -18.6 | inactive |
| ZRANB2 | -1 | -5.3 | 4.9 | -15.6 | inactive |
| RRAGC | 0 | -3 | -3.4 | -2.6 | inactive |
| NAA60 | 0 | -7.1 | -4.3 | -10 | inactive |
| RPIA | 0 | -3.6 | -12.2 | 5 | inactive |
| CSAG2 | 0 | 0.3 | -7.3 | 7.9 | inactive |
| ORM2 | 0 | -17.1 | -6.6 | -27.6 | inactive |
| LOC440152 | 0 | 9.7 | 5.5 | 13.9 | inactive |
| GPRC5D | 0 | 5.8 | 21.2 | -9.7 | inactive |
| GYS1 | 1 | 5.6 | -21.1 | 32.2 | inactive |
| APOD | 0 | -0.6 | -2.7 | 1.5 | inactive |
| LOC440885 | 1 | 14.9 | 19.6 | 10.2 | inactive |
| MPV17 | 1 | 18.7 | 39.1 | -1.8 | inactive |
| LOC400004 | 0 | 6.2 | -4 | 16.3 | inactive |
| KLK15 | 0 | -18.2 | -34.2 | -2.3 | inactive |
| LOC440121 | 1 | 9.6 | 5.5 | 13.7 | inactive |
| CLCN1 | 0 | 8.7 | 11.4 | 6 | inactive |
| LOC441162 | 0 | 1.6 | 4.9 | -1.7 | inactive |
| ZNF227 | 1 | 4.8 | -5.5 | 15.1 | inactive |
| TMBIM6 | -1 | -9.7 | -19.1 | -0.3 | inactive |
| NEB | 0 | -1.8 | 1.8 | -5.3 | inactive |
| NPM3 | 1 | 20.8 | 25.9 | 15.7 | inactive |
| CD79B | 0 | 1.6 | -13.2 | 16.4 | inactive |
| LOC389365 | 0 | 0.4 | -12.1 | 12.9 | inactive |
| MKNK1 | 2 | 20.1 | 29.3 | 11 | active |
| ANTKMT | 0 | 2.4 | -11.2 | 15.9 | inactive |
| NRSN2 | 0 | 1.2 | 0.9 | 1.5 | inactive |
| CFAP161 | -1 | -9.2 | -22.8 | 4.3 | inactive |
| VIPR1 | 0 | 8.3 | 4.6 | 12.1 | inactive |
| MYCNOS | 0 | 8.9 | 1.3 | 16.6 | inactive |
| SEC61G | 1 | 6.8 | -2.5 | 16 | inactive |
| LOC286348 | 0 | 7.3 | 2.6 | 12 | inactive |
| SERPIND1 | 0 | 5.4 | 1.4 | 9.4 | inactive |
| DDO | 0 | 4.5 | 1.5 | 7.4 | inactive |
| RFX5 | 1 | 15.4 | 18 | 12.8 | inactive |
| OTOR | 0 | 6.2 | 1.2 | 11.2 | inactive |
| MAVS | 0 | 3.4 | 3.4 | 3.3 | inactive |
| H1-10 | 0 | -1.6 | 2.2 | -5.4 | inactive |
| LOC442181 | 1 | 7.7 | 13.5 | 2 | inactive |
